Source: patent US20150080580A1, “THIOUREA DERIVATIVES AS a-CHYMOTRYPSIN INHIBITORS” (priority 2013, published 2015)
For at least one compound, name, drawing or mass did not settle the structure.

Target: T1, α-Chymotrypsin (Bos taurus, UniProt P00766)
T1 construct: purchased Sigma-Aldrich (USA) C4129; host or cells: bovine pancreas
Test: α-Chymotrypsin inhibition assay (SPpNA substrate, absorbance at 410 nm)
Format: biochemical, bovine
Procedure: α-Chymotrypsin (bovine pancreas, C4129) and N-succinyl-L-phenylalanine-p-nitroaniline (S2628) were purchased from Sigma-Aldrich (USA). Chymostatin (152845) from MP Biomedicals, LLC, USA, Tris(hydroxymethyl)aminomethane from Scharlau Chemie Barcelona, Spain and all other reagents were obtained from E. Merck and were of analytical grade. All other solvents and reagents were of analytical grade and used directly without purification.
This was performed in 50 mM Tris-HCl buffer pH 7.6 with 10 mM CaCl2. α-Chymotrypsin (12 units/mL prepared in 50 mM Tris-HCl buffer) with the different concentration of test compounds prepared in DMSO. It was then incubated at 30° C. for 25 min. The reaction was started by the addition of the substrate, N-succinyl-L-phenylalanine-p-nitroanilide (final concentration of 0.4 mM, prepared in the buffer as mentioned above). The change in absorbance due to released p-nitroaniline was continuously monitored at 410 nm (Choudhary et al., 2011). All the experiments were in a final volume of 200 μL in triplicate, and data was taken using a micro-plate reader (SpectraMax M2, Molecular Devices, Calif., USA).
The results were processed by using SoftMax Pro 4.8 then analyzed by MS Excel software. The % of inhibition based upon initial velocity and calculated as: […]

NC(N)=S [Compound H2NCSNH2, thiourea]
α-chymotrypsin inhibition (in words): failed to show any significant inhibition
